Literature values as cited in US20120309722A1, “THERAPEUTIC REGIMENS FOR THE TREATMENT OF IMMUNOINFLAMMATORY DISORDERS” (priority 2007, published 2012).
For at least one compound, name, drawing or mass did not settle the structure.

Key:
[1] = nasal administration; BNF 37 March 1999
[2] = BNF guidelines; for Equivalent Dose to Prednisolone: Equal to 1 mg prednisolone: dose equivalent to 1 mg prednisolone; for Equivalent Dose to Prednisolone: Equal to 5 mg prednisolone: dose equivalent to 5 mg prednisolone

SMILES | broadly similar dose from clinical dosing equivalence [1] [µg] | Equivalent Dose to Prednisolone: Equal to 1 mg prednisolone [2] [µg] | Equivalent Dose to Prednisolone: Equal to 5 mg prednisolone [2] [µg]
C[C@@H]1C[C@H]2[C@@H]3C[C@H](F)C4=CC(=O)C=C[C@]4(C)[C@@]3(F)[C@@H](O)C[C@]2(C)[C@@]1(O)C(=O)SCF [fluticasone] | 100 |  | 
CCCC1O[C@@H]2C[C@H]3[C@@H]4CCC5=CC(=O)C=C[C@]5(C)[C@H]4[C@@H](O)C[C@]3(C)[C@]2(C(=O)CO)O1 (stereo partly drawn) [budesonide] | 200 |  | 
C[C@H]1C[C@H]2[C@@H]3CCC4=CC(=O)C=C[C@]4(C)[C@@]3(F)[C@@H](O)C[C@]2(C)[C@@]1(O)C(=O)CO [betamethasone] |  | 150 | 750
C[C@@H]1C[C@H]2[C@@H]3CCC4=CC(=O)C=C[C@]4(C)[C@@]3(F)[C@@H](O)C[C@]2(C)[C@@]1(O)C(=O)CO [dexamethasone] |  | 150 | 750
